From paper PMC4413876 come the findings set out here.

No constants are given. Whether binding was seen depends on the method and setting. Some entries that bind do so weakly or less than the wild type. Where a sequence is shown, tags or fusion partners need not be part of it.

The target of this assay is T1, Pol1, polymerase subunit of Pol α, with a C-terminal 3XFLAG tag (S. cerevisiae) (UniProt P13382).
T1 sequence: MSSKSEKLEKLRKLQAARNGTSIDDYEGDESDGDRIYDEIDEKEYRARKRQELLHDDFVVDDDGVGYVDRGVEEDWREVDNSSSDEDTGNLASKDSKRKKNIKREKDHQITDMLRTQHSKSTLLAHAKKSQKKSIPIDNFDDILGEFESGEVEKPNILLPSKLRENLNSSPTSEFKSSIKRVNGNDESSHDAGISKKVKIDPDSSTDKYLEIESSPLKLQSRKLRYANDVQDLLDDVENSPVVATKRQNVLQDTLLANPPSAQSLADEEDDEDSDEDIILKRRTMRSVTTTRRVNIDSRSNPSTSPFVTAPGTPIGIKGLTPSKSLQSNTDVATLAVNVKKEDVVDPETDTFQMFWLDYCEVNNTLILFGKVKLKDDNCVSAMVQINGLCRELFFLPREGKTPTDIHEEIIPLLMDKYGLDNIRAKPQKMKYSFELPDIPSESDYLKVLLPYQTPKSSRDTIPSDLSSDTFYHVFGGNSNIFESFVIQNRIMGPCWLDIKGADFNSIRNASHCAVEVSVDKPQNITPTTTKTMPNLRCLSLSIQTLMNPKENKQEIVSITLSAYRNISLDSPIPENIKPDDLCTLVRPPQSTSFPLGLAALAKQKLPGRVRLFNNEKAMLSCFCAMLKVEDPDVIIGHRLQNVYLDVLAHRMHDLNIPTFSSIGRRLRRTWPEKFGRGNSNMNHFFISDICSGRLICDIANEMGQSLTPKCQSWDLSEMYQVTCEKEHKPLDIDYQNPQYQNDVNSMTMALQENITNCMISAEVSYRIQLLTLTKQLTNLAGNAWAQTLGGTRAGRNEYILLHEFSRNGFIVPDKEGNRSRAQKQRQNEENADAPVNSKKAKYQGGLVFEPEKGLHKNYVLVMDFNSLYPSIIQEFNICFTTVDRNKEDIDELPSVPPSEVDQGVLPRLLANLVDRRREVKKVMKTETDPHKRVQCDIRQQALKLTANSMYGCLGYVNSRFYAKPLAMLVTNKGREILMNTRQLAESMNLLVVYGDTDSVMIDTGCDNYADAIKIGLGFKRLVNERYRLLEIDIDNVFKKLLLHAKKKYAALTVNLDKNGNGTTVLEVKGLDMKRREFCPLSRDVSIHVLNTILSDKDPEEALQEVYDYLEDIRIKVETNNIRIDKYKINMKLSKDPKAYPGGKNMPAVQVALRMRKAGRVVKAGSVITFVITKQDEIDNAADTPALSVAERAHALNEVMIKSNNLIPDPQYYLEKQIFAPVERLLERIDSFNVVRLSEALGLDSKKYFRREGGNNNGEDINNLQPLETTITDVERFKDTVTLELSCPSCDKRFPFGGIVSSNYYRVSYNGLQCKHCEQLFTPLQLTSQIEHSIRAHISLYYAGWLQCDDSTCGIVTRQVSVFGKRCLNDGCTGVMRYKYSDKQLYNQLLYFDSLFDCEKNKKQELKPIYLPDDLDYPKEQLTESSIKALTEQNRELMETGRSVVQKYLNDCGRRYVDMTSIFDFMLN
The assay is described as follows: co-purification (anti-Flag agarose, then heparin agarose); yeast cells with Pol1-3XFLAG and E. coli cells with Pol12 and with Pri1 and Pri2 co-crushed; lysate incubated with anti-Flag agarose 1.5 hr at 12°C, washed in 50 mM Hepes pH 7.4, 250 mM potassium glutamate, 1 mM EDTA, eluted with Flag peptide, then heparin agarose with a NaCl gradient; subunits seen by SDS-PAGE and confirmed by mass spectrometry.

B1: Pol12 subunit of Pol α (protein, UniProt P38121 1-705)
chain: MSGSIDVITHFGPDADKPEIITALENLTKLHALSVEDLYIKWEQFSNQRRQTHTDLTSKNIDEFKQFLQLQMEKRANQISSSSKVNTSTKKPVIKKSLNSSPLFGLSIPKTPTLKKRKLHGPFSLSDSKQTYNVGSEAETNEKGNSSLKLEFTPGMAEDAVGDSAPLSHAKSSDAKTPGSSTFQTPTTNTPTTSRQNVPAGEILDSLNPENIEISSGNPNVGLLSTEEPSYNQVKVEPFYDAKKYKFRTMRQNLQEASDVLDDQIESFTKIIQNHYKLSPNDFADPTIQSQSEIYAVGRIVPDSPTYDKFLNPESLSLETSRMGGVGRRVRLDLSQVNELSFFLGQIVAFKGKNANGDYFTVNSILPLPYPNSPVSTSQELQEFQANLEGSSLKVIVTCGPYFANDNFSLELLQEFIDSINNEVKPHVLIMFGPFIDITHPLIASGKLPNFPQFKTQPKTLDELFLKLFTPILKTISPHIQTVLIPSTKDAISNHAAYPQASLIRKALQLPKRNFKCMANPSSFQINEIYFGCSNVDTFKDLKEVIKGGTTSSRYRLDRVSEHILQQRRYYPIFPGSIRTRIKPKDVSTKKETNDMESKEEKVYEHISGADLDVSYLGLTEFVGGFSPDIMIIPSELQHFARVVQNVVVINPGRFIRATGNRGSYAQITVQCPDLEDGKLTLVEGEEPVYLHNVWKRARVDLIAS
For B1, the binding result was “binds”.

B2: Pri2 primase subunit of Pol α (protein, UniProt P20457 1-528)
chain: MFRQSKRRIASRKNFSSYDDIVKSELDVGNTNAANQIILSSSSSEEEKKLYARLYESKLSFYDLPPQGEITLEQFEIWAIDRLKILLEIESCLSRNKSIKEIETIIKPQFQKLLPFNTESLEDRKKDYYSHFILRLCFCRSKELREKFVRAETFLFKIRFNMLTSTDQTKFVQSLDLPLLQFISNEEKAELSHQLYQTVSASLQFQLNLNEEHQRKQYFQQEKFIKLPFENVIELVGNRLVFLKDGYAYLPQFQQLNLLSNEFASKLNQELIKTYQYLPRLNEDDRLLPILNHLSSGYTIADFNQQKANQFSENVDDEINAQSVWSEEISSNYPLCIKNLMEGLKKNHHLRYYGRQQLSLFLKGIGLSADEALKFWSEAFTRNGNMTMEKFNKEYRYSFRHNYGLEGNRINYKPWDCHTILSKPRPGRGDYHGCPFRDWSHERLSAELRSMKLTQAQIISVLDSCQKGEYTIACTKVFEMTHNSASADLEIGEQTHIAHPNLYFERSRQLQKKQQKLEKEKLFNNGNH
Take B2: the binding result was “binds”.

B3: Pri1 primase subunit of Pol α (protein, UniProt P10363 1-409)
chain: MTNSVKTNGPSSSDMEYYYKSLYPFKHIFNWLNHSPKPSRDMINREFAMAFRSGAYKRYNSFNSVQDFKAQIEKANPDRFEIGAIYNKPPRERDTLLKSELKALEKELVFDIDMDDYDAFRTCCSGAQVCSKCWKFISLAMKITNTALREDFGYKDFIWVFSGRRGAHCWVSDKRARALTDVQRRNVLDYVNVIRDRNTDKRLALKRPYHPHLARSLEQLKPFFVSIMLEEQNPWEDDQHAIQTLLPALYDKQLIDSLKKYWLDNPRRSSKEKWNDIDQIATSLFKGPKQDSHIIKLRECKEDLVLMTLYPKLDVEVTKQTIHLLKAPFCIHPATGNVCVPIDESFAPEKAPKLIDLQTEMEKNNDVSLTALQPFINQFQAYVSSLLKNELGSVKREREDDDEPASLDF
With B3, the binding result was “binds”.
